PMC9890532
Results are given in words; binding and its absence hold for the method and conditions named. Binding seen in cells or lysates may run through a third protein. Some entries that bind do so weakly or less than the wild type.

Protein sequences, listed by entry. Tags and fused reporters are not part of them.
UniProt Q96P20: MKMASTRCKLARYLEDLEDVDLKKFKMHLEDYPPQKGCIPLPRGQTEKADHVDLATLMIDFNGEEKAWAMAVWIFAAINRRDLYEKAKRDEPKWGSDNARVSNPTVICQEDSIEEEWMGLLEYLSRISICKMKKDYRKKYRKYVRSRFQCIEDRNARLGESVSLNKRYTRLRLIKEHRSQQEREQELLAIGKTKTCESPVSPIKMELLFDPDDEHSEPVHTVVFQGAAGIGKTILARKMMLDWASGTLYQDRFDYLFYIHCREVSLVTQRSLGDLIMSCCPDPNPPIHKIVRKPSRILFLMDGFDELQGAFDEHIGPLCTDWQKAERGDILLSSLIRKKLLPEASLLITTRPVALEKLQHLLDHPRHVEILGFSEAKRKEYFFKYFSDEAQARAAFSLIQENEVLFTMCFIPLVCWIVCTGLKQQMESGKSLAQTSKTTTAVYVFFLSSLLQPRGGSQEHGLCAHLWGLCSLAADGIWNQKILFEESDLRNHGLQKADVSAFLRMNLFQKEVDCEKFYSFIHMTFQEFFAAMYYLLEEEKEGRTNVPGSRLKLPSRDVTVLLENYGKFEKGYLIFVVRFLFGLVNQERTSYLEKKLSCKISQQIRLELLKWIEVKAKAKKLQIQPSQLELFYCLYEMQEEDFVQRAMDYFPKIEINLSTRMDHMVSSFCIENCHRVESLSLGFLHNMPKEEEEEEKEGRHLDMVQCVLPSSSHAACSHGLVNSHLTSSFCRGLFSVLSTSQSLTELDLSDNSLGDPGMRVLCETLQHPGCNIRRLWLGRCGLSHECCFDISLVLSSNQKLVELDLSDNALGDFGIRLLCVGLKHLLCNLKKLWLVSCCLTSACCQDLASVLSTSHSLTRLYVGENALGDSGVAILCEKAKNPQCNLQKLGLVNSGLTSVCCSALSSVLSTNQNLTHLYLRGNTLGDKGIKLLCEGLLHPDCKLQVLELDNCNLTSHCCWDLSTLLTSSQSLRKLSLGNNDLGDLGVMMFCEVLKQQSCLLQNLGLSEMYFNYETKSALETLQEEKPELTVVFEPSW

Target: T1, Thioredoxin‐interacting protein (TXNIP) (human (endogenous in HK-2)) (UniProt Q9H3M7)
T1 sequence: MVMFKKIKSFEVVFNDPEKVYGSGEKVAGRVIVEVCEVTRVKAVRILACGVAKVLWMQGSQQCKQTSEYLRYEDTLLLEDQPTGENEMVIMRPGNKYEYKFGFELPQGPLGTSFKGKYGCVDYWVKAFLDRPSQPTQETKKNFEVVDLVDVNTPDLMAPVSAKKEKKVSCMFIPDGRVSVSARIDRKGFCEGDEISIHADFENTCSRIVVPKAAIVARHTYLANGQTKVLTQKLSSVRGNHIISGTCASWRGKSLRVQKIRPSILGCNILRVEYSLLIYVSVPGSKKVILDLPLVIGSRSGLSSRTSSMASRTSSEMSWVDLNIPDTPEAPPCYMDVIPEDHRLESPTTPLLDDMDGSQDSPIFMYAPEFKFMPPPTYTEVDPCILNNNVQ
Assay: co-IP; HK-2 cell lysates in immunoprecipitation buffer with protease inhibitors, pre-cleared with IgG and A/G-beads, antibody overnight at 4°C, A/G-beads 2 h, SDS-PAGE and western blotting; NG-treated cells with PWARSN overexpression and HG-treated cells with PWARSN knockout

- binding: binds
Substance: NOD‐like receptor thermal protein domain associated protein 3 (NLRP3) (from UniProt Q96P20 1-1036)
